{"source": "paper PMC7819943", "about": "“Rice protein-binding microarrays: a tool to detect cis-acting elements near promoter regions in rice”", "note": "The other results are listed elsewhere or left out."}
{"biological_target": "T1, OsSMF1 (Oryza sativa, UniProt Q6ZLB0 1-436)", "T1 sequence": "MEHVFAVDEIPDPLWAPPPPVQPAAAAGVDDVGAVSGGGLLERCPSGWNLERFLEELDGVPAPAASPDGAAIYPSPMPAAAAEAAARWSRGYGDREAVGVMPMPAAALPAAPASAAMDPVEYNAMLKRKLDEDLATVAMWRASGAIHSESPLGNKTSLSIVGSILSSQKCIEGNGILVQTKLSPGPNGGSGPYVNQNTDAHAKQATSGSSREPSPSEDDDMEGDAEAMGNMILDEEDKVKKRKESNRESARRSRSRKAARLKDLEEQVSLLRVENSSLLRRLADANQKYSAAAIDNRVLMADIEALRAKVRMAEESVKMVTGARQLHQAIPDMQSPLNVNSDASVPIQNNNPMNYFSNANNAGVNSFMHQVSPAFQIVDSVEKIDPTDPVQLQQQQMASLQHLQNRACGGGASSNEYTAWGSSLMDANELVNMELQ", "assay": "protein-binding microarray (RPBM); PBS, 2% BSA, 51.3 ng/ul salmon testes DNA, 50 uM zinc acetate, 200 nM TF, 25 C, 1 h; high values mean tight binding", "conditions": "protein: recombinant; tags: N-terminal polyhistidine and DsRed monomer fusion (pET32a); chain copies: 2; label: CyDye5-dUTP incorporated in the synthesized complementary strand; 3' TTTTT single-stranded linker to array surface; dsDNA, one strand shown", "outline": "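In PBS with 2% BSA, salmon testes DNA and 50 µM zinc acetate, 200 nM protein was incubated on a custom Agilent array at 25 °C for 1 h and then washed off. The array had been made double-stranded by primer extension with Cy5-dUTP and blocked with 2% BSA. The proteins were transcription factors fused N-terminally to polyhistidine and DsRed, expressed in E. coli BL21-CodonPlus and purified on Ni–NTA. The binding signal is per-feature fluorescence intensity (arbitrary units) from an Axon 4000B scanner.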"}
{"sequence": "CCTGCGCGCTCCGCCACGTGCGCCTCTTCTCCCCGCCTCCCGGAGTCACCTAGTGCAG", "binding signal": "12100 fluorescence intensity (a.u.)"}
{"sequence": "CTCTTCATCCAGCTCACTGCATAATCACACACTAATTAACCGGAGTCACCTAGTGCAG", "binding signal": "3460 fluorescence intensity (a.u.)"}
{"sequence": "AGGATGATGAGATGGAATGATGATAAGTGCCATGAAGCCTCGGAGTCACCTAGTGCAG", "binding signal": "3660 fluorescence intensity (a.u.)"}
{"sequence": "CCAATAATGATAAATCCCGTGACGTAGTATACGCCTCTGTCGGAGTCACCTAGTGCAG", "binding signal": "4590 fluorescence intensity (a.u.)"}
{"sequence": "ATCATAATATGAAATATGGTAATTACCATAAGAATAAAAGCGGAGTCACCTAGTGCAG", "binding signal": "3660 fluorescence intensity (a.u.)"}
{"sequence": "AGGTCGGGGAAAGGATGCCGTTGGCGAGGAGGGTGGCGAGCGGAGTCACCTAGTGCAG", "binding signal": "3500 fluorescence intensity (a.u.)"}
{"sequence": "GATTGCACGTATTGTGAACGCTGACTTCATTAATCTTAAGCGGAGTCACCTAGTGCAG", "binding signal": "25100 fluorescence intensity (a.u.)"}
{"sequence": "TAAATAAACCAACTTCTGCCACTTCATTCTCTGTGGCATCCGGAGTCACCTAGTGCAG", "binding signal": "3950 fluorescence intensity (a.u.)"}
{"sequence": "CCCCGGCGCCAGCAGCGGCCTCCACGTCCCGCTCCCACTCCGGAGTCACCTAGTGCAG", "binding signal": "5280 fluorescence intensity (a.u.)"}
{"sequence": "CTCCGAGAATCTCAGCCATTGGATATAACTTGGATGGTCCCGGAGTCACCTAGTGCAG", "binding signal": "9520 fluorescence intensity (a.u.)"}
{"sequence": "TTTGATCACCGGTCCGGTCTTAATAACTATGTGGCAGACGCGGAGTCACCTAGTGCAG", "binding signal": "3660 fluorescence intensity (a.u.)"}
{"sequence": "AAGAAGAAGGAAGACGTGCCATCGTCGTCACACGCGTACGCGGAGTCACCTAGTGCAG", "binding signal": "4170 fluorescence intensity (a.u.)"}
{"sequence": "CGAGAGGTACCGCGCGCTGCCGGCGGAGAAGCGGGCGAGGCGGAGTCACCTAGTGCAG", "binding signal": "41500 fluorescence intensity (a.u.)"}
{"sequence": "CGAGAGCTTCCAGACGATGTGGTCTGACTCATTTTGGTTTCGGAGTCACCTAGTGCAG", "binding signal": "6860 fluorescence intensity (a.u.)"}
{"sequence": "GTACAGTACAAATTCATGCGCCCACAATACACGTGTGCATCGGAGTCACCTAGTGCAG", "binding signal": "12900 fluorescence intensity (a.u.)"}
{"sequence": "AGATCCAAACTTTGGATCTAAACACAGCCTTAGTAGTAGTCGGAGTCACCTAGTGCAG", "binding signal": "35800 fluorescence intensity (a.u.)"}
{"sequence": "CTCCATCCGTTTCACAATGTAAGTCATTCTAGCATTTCACCGGAGTCACCTAGTGCAG", "binding signal": "3980 fluorescence intensity (a.u.)"}
{"sequence": "CAAGCCATGGATGCTTATAAAATGCATTCACAGTCACAGACGGAGTCACCTAGTGCAG", "binding signal": "4260 fluorescence intensity (a.u.)"}
{"sequence": "GAGAGCTCTAGCTACAGCTATACATACGTGTACCCAACGGCGGAGTCACCTAGTGCAG", "binding signal": "5940 fluorescence intensity (a.u.)"}
{"sequence": "AGAAACCTGGAACATTCCTGTATTGTTGGTTGTCCCATTTCGGAGTCACCTAGTGCAG", "binding signal": "25300 fluorescence intensity (a.u.)"}
{"sequence": "GCTACAGTAACCCACGTGTGCTAACGACGGATTAATTAGGCGGAGTCACCTAGTGCAG", "binding signal": "5050 fluorescence intensity (a.u.)"}
{"sequence": "ACCGATGCCATCATCCACGTCATCGTCCACGTGTCACCCACGGAGTCACCTAGTGCAG", "binding signal": "45100 fluorescence intensity (a.u.)"}
{"sequence": "AACTCACTTAAAACGGTTTAGGTTCAATCCATATCCTAACCGGAGTCACCTAGTGCAG", "binding signal": "26400 fluorescence intensity (a.u.)"}
{"sequence": "GGTCTTCTCCGAGACGGGTGATTGCGTCATGGTGACCGACCGGAGTCACCTAGTGCAG", "binding signal": "10300 fluorescence intensity (a.u.)"}
{"sequence": "TCGAACTGTGAGTCTGAGGTGTCCTCACCAACTTCCTTCACGGAGTCACCTAGTGCAG", "binding signal": "4940 fluorescence intensity (a.u.)"}
{"sequence": "CTGCACATAATAACGTGGATGAATCTTAAACGTCCATTTACGGAGTCACCTAGTGCAG", "binding signal": "47100 fluorescence intensity (a.u.)"}
{"sequence": "GATCAGGAGGTGTGGGCTGACATGGGCACCGCCGTCAGGGCGGAGTCACCTAGTGCAG", "binding signal": "4260 fluorescence intensity (a.u.)"}
{"sequence": "GATGTTTTACGCTCCCAAATATATTAATACATTGGATCACCGGAGTCACCTAGTGCAG", "binding signal": "4110 fluorescence intensity (a.u.)"}
{"sequence": "ATCCCCTACTTTACTCACTGACACGTGGGCCCAAGAAATTCGGAGTCACCTAGTGCAG", "binding signal": "8260 fluorescence intensity (a.u.)"}
{"sequence": "GTGGGTACTTAGTGTTAGTGTTGTCGTGCGTTATCCATGTCGGAGTCACCTAGTGCAG", "binding signal": "3160 fluorescence intensity (a.u.)"}
{"sequence": "AAACGACTTTCTTTACGAGTACAGATGGAGTAATAGTTAACGGAGTCACCTAGTGCAG", "binding signal": "26900 fluorescence intensity (a.u.)"}
{"sequence": "TTACTACCATTGATCTGACATACTATTCCCTCAAGTTCTTCGGAGTCACCTAGTGCAG", "binding signal": "3260 fluorescence intensity (a.u.)"}
{"sequence": "GGCTAGCGTACAGGTTAAAACGTGTCGGAATCGTCAGCGCCGGAGTCACCTAGTGCAG", "binding signal": "4110 fluorescence intensity (a.u.)"}
{"sequence": "GGCCCCACCTGCAGCGACTGTTAGTCCAACGTGGCACTATCGGAGTCACCTAGTGCAG", "binding signal": "11600 fluorescence intensity (a.u.)"}
{"sequence": "AAGAGGAAGATAGTAGGTGGTCTCCATCAGTTTGACTTGGCGGAGTCACCTAGTGCAG", "binding signal": "4130 fluorescence intensity (a.u.)"}
{"sequence": "TCTCCCCAATTTTAGAAACTAAACACAGCCTACGTCATATCGGAGTCACCTAGTGCAG", "binding signal": "6630 fluorescence intensity (a.u.)"}
{"sequence": "TCAGAGTAGAGCGGCCAGCACAGCATTGGCACACCCGCGGCGGAGTCACCTAGTGCAG", "binding signal": "3720 fluorescence intensity (a.u.)"}
{"sequence": "GCTGTACAACATCCCTAGTCAGCATTTATTATTTCCAGTGCGGAGTCACCTAGTGCAG", "binding signal": "5180 fluorescence intensity (a.u.)"}
{"sequence": "ATCGCGCGGATGCTTGTCGTGTCGGCGAGGAAGTGGGGTGCGGAGTCACCTAGTGCAG", "binding signal": "3800 fluorescence intensity (a.u.)"}
{"sequence": "CCAAAATTAGCTTCGGTCGGTACAAACACCAGAATTCAGCCGGAGTCACCTAGTGCAG", "binding signal": "3220 fluorescence intensity (a.u.)"}
{"sequence": "GCTAGCTAAGAGCGAGCTTCATTAACATACGAGACAGAGACGGAGTCACCTAGTGCAG", "binding signal": "4530 fluorescence intensity (a.u.)"}
{"sequence": "GCAAGCAAAGAAAGTTGTCATCATCCCAATCCTCCTCCGCCGGAGTCACCTAGTGCAG", "binding signal": "4050 fluorescence intensity (a.u.)"}
